Experimental data from paper PMC10290081.
Results are given in words; binding and its absence hold for the method and conditions named. For some assays here: Binding seen in cells or lysates may run through a third protein. Some binding calls cover weakened binding; strength is not graded here. Blank lines part the entries; values can stand above or below the substance they belong to.

Amino acid sequences for entries named in this document (tags omitted). A change or cut given only in a name is not applied to a line headed by its entry.
UniProt P61586: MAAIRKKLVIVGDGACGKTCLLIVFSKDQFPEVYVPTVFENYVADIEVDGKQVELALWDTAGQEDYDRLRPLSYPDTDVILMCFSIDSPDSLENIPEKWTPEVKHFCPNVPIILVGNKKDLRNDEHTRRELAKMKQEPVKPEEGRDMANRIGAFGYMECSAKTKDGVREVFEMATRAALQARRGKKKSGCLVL
UniProt Q9HBA0: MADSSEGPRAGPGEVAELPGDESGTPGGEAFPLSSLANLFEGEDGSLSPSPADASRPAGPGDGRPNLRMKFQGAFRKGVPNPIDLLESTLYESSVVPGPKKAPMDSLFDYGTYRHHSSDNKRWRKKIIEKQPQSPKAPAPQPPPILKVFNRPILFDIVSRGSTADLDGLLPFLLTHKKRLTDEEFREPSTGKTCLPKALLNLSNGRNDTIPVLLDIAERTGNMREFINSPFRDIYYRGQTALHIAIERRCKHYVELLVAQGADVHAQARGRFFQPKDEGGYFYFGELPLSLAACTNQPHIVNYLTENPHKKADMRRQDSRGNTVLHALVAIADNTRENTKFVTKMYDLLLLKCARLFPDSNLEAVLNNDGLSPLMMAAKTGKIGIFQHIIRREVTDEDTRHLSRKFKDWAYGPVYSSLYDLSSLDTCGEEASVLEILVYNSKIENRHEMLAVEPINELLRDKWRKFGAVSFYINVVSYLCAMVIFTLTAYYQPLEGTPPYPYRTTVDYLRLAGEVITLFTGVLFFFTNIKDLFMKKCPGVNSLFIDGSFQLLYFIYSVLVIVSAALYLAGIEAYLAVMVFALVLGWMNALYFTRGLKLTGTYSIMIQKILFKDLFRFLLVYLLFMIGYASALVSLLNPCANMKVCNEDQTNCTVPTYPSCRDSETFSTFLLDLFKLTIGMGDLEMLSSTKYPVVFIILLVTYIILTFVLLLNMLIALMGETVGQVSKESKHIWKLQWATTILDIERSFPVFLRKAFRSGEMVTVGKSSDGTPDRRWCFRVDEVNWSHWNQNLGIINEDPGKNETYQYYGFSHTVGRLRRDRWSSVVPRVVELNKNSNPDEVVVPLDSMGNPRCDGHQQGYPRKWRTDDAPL
UniProt P62745: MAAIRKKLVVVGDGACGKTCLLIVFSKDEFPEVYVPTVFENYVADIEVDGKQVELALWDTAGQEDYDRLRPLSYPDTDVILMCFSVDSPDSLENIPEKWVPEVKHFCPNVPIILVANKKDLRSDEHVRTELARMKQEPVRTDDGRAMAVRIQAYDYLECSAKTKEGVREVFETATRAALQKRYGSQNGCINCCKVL
UniProt P08134: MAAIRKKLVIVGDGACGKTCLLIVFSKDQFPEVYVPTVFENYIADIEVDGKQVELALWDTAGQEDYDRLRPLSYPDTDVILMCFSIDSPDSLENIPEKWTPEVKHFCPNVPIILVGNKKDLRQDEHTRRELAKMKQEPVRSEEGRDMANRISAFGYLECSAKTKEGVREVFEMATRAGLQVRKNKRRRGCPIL

How the values were obtained:
[1] = target: Myc-tagged RhoA D76A (UniProt P61586); test: co-IP; HEK293T cells transfected with TRPV4-GFP and RhoA-Myc (WT or mutant), lysed in IP Lysis Buffer (1% NP-40, 150 mM NaCl), antibody (mouse anti-Myc) on Protein G Dynabeads, 1 h at 4 C, western blot; also in the presence of GSK101
[2] = target: Myc-tagged RhoA D76L (UniProt P61586); test: as above
[3] = target: Myc-tagged RhoA E54H (UniProt P61586); test: as above
[4] = target: Myc-tagged WT RhoA (UniProt P61586); test: as above
[5] = target: Homo sapiens full-length TRPV4 (hTRPV4), C-terminal FLAG-tag and 10x His-tag (human) (UniProt Q9HBA0); test: cryo-EM structure; single-particle cryo-EM of TRPV4 purified in detergent (LMNG/CHS/GDN, 20 mM Tris pH 8.0, 150 mM NaCl) with copurified endogenous Rho GTPase; ligand-free, with 20 uM GSK279, with 20 uM GSK101 + 2 mM GTPgammaS, with 40 uM 4alpha-PDD + 2 mM GTPgammaS; both purified
[6] = target: Homo sapiens full-length TRPV4 (hTRPV4), C-terminal FLAG-tag and 10x His-tag (human) (UniProt Q9HBA0); test: co-purification (anti-FLAG resin, SEC) with western blot; FLAG-tagged TRPV4 overexpressed alone in HEK293S GnTI- cells, purified by anti-FLAG M2 resin (wash with 500 mM NaCl) and SEC; final purified samples blotted with RhoA-, RhoB- and RhoC-specific antibodies

- binding [1]: binds weakly
- binding [2]: binds weakly
- binding [3]: binds weakly
- binding [4]: binds
Substance: GFP-tagged WT TRPV4 (from UniProt Q9HBA0 1-871)

- binding [5]: binds
- binding [6]: binds
Substance: RhoA (endogenous Rho GTPase copurified with overexpressed TRPV4) (from UniProt P61586 1-193)

- binding [6]: binds
Substance: RhoB (endogenous, copurified with TRPV4) (from UniProt P62745 1-196)

- binding [6]: binds
Substance: RhoC (endogenous, copurified with TRPV4) (from UniProt P08134 1-193)
